Results from paper PMC10821535.
No constants are given. Whether binding was seen depends on the method and setting. In cells and extracts the contact can be indirect. Some results given as binding are weak or reduced against the parent protein; the word gives no strength.

Sequences of proteins named here, by UniProt entry; tags and fusion partners are left off. A change or cut given only in a name is not applied to a line headed by its entry.
UniProt B2RWS6: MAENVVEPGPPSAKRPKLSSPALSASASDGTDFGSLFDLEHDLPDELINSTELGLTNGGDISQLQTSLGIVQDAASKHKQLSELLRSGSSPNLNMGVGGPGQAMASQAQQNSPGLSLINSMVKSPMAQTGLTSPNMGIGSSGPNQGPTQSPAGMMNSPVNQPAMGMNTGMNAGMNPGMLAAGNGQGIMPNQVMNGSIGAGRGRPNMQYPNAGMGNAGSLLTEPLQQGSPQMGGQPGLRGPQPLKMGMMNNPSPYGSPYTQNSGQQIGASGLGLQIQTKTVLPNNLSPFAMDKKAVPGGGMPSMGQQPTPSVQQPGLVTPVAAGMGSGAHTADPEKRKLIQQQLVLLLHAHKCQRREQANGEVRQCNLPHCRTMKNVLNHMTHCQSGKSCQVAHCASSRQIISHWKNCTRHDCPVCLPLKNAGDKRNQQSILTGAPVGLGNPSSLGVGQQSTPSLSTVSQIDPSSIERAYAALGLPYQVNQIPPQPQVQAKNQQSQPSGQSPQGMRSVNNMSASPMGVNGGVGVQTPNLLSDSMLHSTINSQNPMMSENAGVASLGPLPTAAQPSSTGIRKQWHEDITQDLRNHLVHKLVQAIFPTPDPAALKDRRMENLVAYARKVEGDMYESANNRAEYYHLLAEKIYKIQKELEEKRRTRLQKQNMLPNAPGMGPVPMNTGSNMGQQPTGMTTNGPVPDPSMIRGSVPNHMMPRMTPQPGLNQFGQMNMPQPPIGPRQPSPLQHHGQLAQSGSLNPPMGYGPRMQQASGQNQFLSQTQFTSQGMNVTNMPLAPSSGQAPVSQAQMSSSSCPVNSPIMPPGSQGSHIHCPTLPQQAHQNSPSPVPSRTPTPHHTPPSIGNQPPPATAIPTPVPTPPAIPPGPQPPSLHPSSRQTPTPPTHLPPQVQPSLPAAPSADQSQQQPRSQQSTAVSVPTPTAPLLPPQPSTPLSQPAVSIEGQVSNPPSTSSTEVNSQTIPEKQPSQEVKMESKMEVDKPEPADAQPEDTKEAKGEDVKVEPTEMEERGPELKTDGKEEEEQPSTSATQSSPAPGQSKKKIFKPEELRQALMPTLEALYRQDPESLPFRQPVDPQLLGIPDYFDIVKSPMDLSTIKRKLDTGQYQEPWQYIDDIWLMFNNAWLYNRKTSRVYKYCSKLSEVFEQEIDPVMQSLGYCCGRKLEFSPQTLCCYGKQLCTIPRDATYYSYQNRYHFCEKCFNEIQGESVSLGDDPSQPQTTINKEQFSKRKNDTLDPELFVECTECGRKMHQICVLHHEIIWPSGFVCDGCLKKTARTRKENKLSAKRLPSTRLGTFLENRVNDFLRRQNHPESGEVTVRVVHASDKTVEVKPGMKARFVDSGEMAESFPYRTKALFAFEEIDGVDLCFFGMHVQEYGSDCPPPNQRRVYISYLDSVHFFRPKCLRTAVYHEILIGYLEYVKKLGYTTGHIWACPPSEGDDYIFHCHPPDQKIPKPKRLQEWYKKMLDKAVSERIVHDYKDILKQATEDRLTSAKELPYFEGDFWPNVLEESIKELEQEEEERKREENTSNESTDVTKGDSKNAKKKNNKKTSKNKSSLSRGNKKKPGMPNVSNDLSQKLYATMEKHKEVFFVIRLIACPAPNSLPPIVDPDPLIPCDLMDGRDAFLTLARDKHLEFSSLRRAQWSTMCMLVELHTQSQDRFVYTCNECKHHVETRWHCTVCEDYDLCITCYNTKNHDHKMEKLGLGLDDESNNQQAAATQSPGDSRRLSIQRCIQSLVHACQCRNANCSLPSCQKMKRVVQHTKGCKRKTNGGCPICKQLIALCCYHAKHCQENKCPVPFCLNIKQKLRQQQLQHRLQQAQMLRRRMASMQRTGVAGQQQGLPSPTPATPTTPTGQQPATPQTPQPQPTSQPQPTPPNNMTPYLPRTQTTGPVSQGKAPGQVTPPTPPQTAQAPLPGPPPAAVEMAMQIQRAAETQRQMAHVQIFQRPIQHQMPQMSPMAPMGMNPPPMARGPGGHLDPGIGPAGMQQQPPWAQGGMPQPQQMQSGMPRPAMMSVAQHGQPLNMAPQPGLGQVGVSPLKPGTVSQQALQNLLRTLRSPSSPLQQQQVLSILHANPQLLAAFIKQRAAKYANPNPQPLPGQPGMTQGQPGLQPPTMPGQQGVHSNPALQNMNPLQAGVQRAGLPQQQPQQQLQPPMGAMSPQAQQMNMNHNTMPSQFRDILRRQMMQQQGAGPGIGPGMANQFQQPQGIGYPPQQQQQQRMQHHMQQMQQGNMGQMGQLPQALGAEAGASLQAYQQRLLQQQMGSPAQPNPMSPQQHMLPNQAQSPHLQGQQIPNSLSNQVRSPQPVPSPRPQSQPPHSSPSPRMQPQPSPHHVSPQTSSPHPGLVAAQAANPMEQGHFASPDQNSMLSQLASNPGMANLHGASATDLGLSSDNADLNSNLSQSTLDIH
UniProt P53566: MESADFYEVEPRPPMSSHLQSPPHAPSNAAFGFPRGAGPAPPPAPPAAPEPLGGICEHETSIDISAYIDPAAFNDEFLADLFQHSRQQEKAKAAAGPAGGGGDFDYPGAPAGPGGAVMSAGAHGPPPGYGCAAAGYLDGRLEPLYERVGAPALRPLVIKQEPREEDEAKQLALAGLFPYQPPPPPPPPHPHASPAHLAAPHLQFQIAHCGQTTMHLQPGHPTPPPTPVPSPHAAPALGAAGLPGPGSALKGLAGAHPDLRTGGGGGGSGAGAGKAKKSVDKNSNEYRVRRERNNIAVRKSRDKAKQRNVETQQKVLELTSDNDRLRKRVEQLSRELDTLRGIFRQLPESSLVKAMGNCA

Molecular target: histone acetyltransferase p300 (mouse (endogenous in liver)) (UniProt B2RWS6)
Assay: co-IP; p300 immunoprecipitated from liver extracts (whole cell and nuclear) of offspring of WT and C/EBPα-S193A mice, Western blot with antibodies to C/EBPα; TrueBlot reagents; four diet arms (NN, NH, HN, HH), two animals of each arm

Row | Substance | binding
1 | ph-S193-C/EBPα (from UniProt P53566 1-359) | binds
2 | C/EBPα-S193A (from UniProt P53566 1-359) | no binding
